This note sets out measurements from publication PMC6828764.

The chains behind the UniProt entries cited, without tags or fusion partners. Where a name states a change or a piece, a line headed by the entry shows the natural chain unless it says otherwise. A line that says so, or that is headed by a name, gives the form on record, which may keep a tag or linker. Residues count along the entry.
UniProt P23771: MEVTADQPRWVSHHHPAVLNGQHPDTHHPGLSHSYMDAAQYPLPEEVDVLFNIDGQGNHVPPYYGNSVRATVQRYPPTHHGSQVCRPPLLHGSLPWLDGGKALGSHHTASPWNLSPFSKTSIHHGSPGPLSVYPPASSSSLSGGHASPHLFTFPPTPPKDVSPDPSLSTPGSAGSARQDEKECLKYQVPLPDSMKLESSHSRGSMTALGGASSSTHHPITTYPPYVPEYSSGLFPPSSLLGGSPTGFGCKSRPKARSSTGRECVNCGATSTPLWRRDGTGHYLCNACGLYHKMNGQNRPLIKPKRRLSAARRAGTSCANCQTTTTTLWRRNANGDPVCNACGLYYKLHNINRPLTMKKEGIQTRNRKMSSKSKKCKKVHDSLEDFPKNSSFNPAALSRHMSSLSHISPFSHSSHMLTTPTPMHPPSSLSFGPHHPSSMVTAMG
UniProt Q6ZW49: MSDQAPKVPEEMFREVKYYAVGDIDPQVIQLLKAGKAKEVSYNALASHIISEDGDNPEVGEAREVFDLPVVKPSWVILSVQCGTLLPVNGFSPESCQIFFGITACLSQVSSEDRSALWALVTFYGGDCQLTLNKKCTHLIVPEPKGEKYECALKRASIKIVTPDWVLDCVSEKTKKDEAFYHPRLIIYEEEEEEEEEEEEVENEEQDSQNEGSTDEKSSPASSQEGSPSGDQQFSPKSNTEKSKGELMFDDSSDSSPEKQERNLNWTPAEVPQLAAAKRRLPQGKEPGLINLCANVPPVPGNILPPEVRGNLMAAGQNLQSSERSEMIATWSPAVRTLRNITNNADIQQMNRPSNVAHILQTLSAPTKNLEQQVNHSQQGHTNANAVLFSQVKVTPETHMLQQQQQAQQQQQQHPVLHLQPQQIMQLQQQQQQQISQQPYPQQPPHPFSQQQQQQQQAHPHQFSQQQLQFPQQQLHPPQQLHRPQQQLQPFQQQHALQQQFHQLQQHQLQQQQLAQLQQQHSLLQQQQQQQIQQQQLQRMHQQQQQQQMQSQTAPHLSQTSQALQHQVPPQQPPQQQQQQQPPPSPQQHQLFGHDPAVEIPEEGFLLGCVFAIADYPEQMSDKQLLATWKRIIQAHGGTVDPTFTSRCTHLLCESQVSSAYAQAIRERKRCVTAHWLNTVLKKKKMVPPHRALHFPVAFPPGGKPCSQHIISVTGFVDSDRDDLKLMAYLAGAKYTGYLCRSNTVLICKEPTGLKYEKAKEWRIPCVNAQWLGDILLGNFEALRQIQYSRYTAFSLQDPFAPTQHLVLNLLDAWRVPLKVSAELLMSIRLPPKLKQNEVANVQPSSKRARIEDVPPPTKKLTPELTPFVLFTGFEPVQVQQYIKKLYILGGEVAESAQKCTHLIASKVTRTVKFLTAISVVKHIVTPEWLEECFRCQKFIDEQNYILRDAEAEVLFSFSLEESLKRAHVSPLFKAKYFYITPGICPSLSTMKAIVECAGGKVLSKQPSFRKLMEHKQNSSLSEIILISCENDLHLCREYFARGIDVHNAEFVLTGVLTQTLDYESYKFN
UniProt Q9UBL3: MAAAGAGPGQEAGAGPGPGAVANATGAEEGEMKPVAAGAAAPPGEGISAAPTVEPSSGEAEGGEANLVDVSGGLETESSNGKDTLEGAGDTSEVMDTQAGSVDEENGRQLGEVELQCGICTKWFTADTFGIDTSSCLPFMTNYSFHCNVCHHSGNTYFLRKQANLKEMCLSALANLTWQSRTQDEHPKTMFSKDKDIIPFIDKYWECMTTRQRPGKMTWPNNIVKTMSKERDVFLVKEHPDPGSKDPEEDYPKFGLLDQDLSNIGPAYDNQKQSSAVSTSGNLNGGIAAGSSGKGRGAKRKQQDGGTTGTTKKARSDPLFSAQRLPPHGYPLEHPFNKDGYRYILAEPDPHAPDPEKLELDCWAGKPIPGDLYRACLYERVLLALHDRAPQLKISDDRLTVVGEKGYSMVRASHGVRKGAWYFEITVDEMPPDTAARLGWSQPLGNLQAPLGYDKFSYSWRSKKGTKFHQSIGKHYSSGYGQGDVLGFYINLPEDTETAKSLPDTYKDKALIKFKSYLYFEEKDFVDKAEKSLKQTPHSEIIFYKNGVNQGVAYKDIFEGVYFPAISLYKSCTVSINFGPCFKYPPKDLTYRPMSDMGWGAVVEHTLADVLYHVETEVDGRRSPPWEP
UniProt Q15291: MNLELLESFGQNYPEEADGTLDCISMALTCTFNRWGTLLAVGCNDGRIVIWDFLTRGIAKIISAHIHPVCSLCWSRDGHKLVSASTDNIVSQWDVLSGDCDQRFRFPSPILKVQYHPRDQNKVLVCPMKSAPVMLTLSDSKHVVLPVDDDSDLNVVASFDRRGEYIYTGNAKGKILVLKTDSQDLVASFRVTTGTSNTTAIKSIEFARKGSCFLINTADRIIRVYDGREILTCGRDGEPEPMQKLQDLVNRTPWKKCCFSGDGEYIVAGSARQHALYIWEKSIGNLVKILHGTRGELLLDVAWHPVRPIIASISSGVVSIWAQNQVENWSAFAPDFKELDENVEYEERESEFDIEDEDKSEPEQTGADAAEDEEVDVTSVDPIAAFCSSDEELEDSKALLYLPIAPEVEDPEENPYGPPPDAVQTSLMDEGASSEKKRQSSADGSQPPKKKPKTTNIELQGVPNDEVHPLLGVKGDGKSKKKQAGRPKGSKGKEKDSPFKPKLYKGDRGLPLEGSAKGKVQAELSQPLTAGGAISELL
UniProt O15550: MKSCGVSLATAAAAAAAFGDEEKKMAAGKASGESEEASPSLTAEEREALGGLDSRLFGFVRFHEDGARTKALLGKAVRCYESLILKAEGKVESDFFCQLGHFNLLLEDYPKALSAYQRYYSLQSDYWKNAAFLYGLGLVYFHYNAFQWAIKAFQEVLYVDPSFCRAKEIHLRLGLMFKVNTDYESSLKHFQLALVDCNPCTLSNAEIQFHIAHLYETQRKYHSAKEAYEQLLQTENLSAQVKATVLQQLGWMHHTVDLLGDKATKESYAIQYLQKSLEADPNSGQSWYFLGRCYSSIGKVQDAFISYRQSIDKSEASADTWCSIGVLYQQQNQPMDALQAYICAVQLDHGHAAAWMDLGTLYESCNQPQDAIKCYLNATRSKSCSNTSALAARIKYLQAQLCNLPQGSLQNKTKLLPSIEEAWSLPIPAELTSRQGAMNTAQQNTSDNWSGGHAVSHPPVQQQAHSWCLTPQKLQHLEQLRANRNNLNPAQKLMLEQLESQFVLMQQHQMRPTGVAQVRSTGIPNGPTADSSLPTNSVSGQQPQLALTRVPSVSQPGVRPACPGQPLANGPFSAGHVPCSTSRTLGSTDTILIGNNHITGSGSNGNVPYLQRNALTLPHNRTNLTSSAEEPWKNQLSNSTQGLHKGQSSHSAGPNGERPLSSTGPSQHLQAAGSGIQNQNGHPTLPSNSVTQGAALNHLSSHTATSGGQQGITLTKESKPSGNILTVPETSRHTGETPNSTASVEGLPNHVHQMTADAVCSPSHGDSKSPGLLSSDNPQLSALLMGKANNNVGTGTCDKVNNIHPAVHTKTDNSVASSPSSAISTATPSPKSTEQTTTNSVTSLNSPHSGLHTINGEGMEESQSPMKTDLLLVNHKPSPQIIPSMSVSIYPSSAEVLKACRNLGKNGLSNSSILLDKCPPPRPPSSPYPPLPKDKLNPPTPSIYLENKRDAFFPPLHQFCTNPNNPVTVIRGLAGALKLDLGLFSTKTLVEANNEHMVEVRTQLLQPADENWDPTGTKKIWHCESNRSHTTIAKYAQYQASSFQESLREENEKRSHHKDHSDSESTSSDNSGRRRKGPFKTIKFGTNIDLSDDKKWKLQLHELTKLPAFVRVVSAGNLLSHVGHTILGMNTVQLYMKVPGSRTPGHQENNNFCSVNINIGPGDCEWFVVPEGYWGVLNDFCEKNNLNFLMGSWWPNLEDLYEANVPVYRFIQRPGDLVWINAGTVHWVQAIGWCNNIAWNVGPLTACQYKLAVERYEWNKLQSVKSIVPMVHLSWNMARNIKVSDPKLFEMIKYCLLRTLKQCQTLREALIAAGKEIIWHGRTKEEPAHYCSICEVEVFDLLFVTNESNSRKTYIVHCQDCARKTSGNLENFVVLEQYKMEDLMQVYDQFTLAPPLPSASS
GST-fused Jumonji C (JmjC) domain of UTX: residues 1095-1258 of O15550
UniProt Q9BTK6: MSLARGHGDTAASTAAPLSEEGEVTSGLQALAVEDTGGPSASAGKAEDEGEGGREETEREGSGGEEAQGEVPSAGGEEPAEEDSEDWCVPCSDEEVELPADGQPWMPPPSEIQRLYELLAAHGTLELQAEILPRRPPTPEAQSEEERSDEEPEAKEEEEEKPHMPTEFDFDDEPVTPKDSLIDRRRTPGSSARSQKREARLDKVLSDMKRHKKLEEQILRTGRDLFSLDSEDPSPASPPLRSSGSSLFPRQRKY
UniProt P43694: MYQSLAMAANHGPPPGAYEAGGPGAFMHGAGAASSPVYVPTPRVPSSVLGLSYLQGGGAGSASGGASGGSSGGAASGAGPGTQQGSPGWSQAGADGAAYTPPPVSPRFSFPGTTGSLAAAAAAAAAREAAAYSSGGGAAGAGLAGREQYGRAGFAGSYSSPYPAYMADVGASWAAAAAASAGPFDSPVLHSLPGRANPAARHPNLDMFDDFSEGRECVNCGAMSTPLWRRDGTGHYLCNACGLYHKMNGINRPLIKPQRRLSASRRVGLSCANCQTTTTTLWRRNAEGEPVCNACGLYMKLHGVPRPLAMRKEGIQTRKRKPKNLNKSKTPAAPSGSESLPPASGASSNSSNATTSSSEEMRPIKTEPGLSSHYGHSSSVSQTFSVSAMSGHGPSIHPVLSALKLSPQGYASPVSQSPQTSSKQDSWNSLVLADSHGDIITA

These are yes or no findings as the source states them, for the method shown. Binding seen in cells or lysates may run through a third protein. Some entries that bind do so weakly or less than the wild type.

In one assay the target is GST-fused GATA3 (UniProt P23771). Description: pull-down; ~10 μg GST-fusion protein (E. coli BL21, crude bacterial lysates) mixed with 5-8 μL in vitro transcription/translation product in 0.8% BSA in PBS with protease inhibitor; glutathione-agarose beads, 4 °C, 2 h; western blot.
The target of assay [1] is MLL4 (human (endogenous in MCF-7)) (UniProt O14686). Description: co-IP; endogenous proteins in MCF-7 whole-cell lysates (50 mM Tris-HCl pH 7.4, 150 mM NaCl, 1 mM EDTA, 0.5% NP-40, 0.25% sodium deoxycholate), IP 12 h at 4 °C, immunoblot; IgG as negative control; GATA3-UTX also tested in the presence and absence of ERα.
For assay [2], the target named is PTIP (human (endogenous in MCF-7)) (UniProt Q6ZW49). Described as above.
Assay [3] concerns the target ASH2L (human (endogenous in MCF-7)) (UniProt Q9UBL3). Described as above.
The target of assay [4] is RBBP5 (human (endogenous in MCF-7)) (UniProt Q15291). Described as above.
Assay [5] has as its target UTX, the ubiquitously transcribed X-chromosome tetratricopeptide-repeat protein (human (endogenous in MCF-7 and T-47D)) (UniProt O15550). The assay is described as above.
Assay [6] concerns the target PA1 (human (endogenous in MCF-7)) (UniProt Q9BTK6). Described as above.
Assay [7] addresses GST-UTX (full-length MLL4-complex component in pGEX-4T-3) (UniProt O15550). Description: pull-down; ~10 μg GST-fusion protein (E. coli BL21, crude bacterial lysates) mixed with 5-8 μL in vitro transcription/translation product in 0.8% BSA in PBS with protease inhibitor; glutathione-agarose beads, 4 °C, 2 h; western blot.
Assay [8] has as its target GST-ASH2L (full-length MLL4-complex component in pGEX-4T-3) (UniProt Q9UBL3). The description is as above.
Assay [9] deals with GST-RBBP5 (full-length MLL4-complex component in pGEX-4T-3) (UniProt Q15291). Described as above.
The target of assay [10] is GST-fused Jumonji C (JmjC) domain of UTX (UniProt O15550). Described as above.

Consider “in vitro transcribed/translated ASH2L (from UniProt Q9UBL3 1-628)”, for which the binding result with GST-fused GATA3 is recorded as “binds”.

For GATA3 (from UniProt P23771 1-443), the binding result in [1], in assay [2], in [3], in [4], in [5] and in assay [6] was “binds” throughout.

Regarding PA1 (from UniProt Q9BTK6 1-254), the binding result in [5] is “binds”.

In the case of RBBP5 (from UniProt Q15291 1-538), in assay [5], the binding entry was “binds”.

Take “in vitro transcribed/translated GATA3 (from UniProt P23771 1-443)”: the binding result in assay [7], in assay [8], in [9] and in assay [10] was “binds” in each case.

On to GATA4 (from UniProt P43694 1-442), for which, in [5], the binding result was “binds”.

As for ASH2L (from UniProt Q9UBL3 1-628), in assay [5], the binding entry was “binds”.

Turning to “in vitro transcribed/translated RBBP5 (from UniProt Q15291 1-538)”, the binding entry with GST-fused GATA3 is given as “binds”.

Take PTIP (from UniProt Q6ZW49 1-1069): the binding entry in assay [5] is reported as “binds”.
